# Read-outs that look alike come from different tables or passages of the source. The whole screen tested about 3,300 compounds, of which about 60 (2%) showed an effect of 50% or more. The list shows a part of the results.
# Test system: HCoV-OC43
# Set-up: species or system RD; HTS, protection from HCoV-OC43 induced cell death, luminescent cell viability (CellCounting-Lite 2.0), inhibition rate
# Conditions: 24 h post infection, 1 h compound pre-incubation, 10 µM, inhibitor
SMILES,OC43 Inhibition rate [%],"OC43 Inhibition rate (OC43 Inhibition rate, 24 h) [%]"
C[C@H]1[C@H](C)CC[C@]2(C(=O)O)CC[C@]3(C)C(=CC[C@@H]4[C@@]5(C)C[C@@H](O)[C@H](O)C(C)(C)[C@@H]5CC[C@]43C)[C@H]12 [Corosolic acid],-23.1,
C=C(C)[C@H](CC=C(C)C)Cc1c(O)cc(OC)c2c1O[C@H](c1ccc(O)cc1O)CC2=O [Kurarinone],0,
COc1cc(O)c2c(=O)c(O[C@@H]3O[C@H](CO)[C@@H](O)[C@H](O)[C@H]3O)c(-c3ccc(O[C@@H]4O[C@H](CO)[C@@H](O)[C@H](O)[C@H]4O)cc3)oc2c1 [Complanatuside],-0.2,
O=C(O)CCc1ccccc1O [3-(2-Hydroxyphenyl)propanoic acid],-0.1,
CC(C)=CCC/C(C)=C/CC/C(C)=C/CO [Farnesol],-0.3,
CC[C@H]1CN2CC[C@@]3(C(=O)Nc4ccccc43)[C@@H]2C[C@@H]1/C(=C\OC)C(=O)OC [Isorhynchophylline],2.7,
COc1c(-c2ccccc2)oc2c(ccc3occc32)c1=O [Karanjin],0,
CO[C@@H]1C=C2[C@@H]3CC(C)(C)CC[C@]3(CO)[C@H](O)C[C@@]2(C)[C@]2(C)CC[C@H]3[C@](C)(CO)[C@@H](O[C@@H]4O[C@H](C)[C@H](O)[C@H](O[C@@H]5O[C@H](CO)[C@@H](O)[C@H](O)[C@H]5O)[C@H]4O)CC[C@]3(C)[C@@H]12 [Saikosaponin B4],1.1,
O=C1C[C@@H](c2ccccc2)Oc2cc(O[C@@H]3O[C@H](CO)[C@@H](O)[C@H](O)[C@H]3O)cc(O)c21 [Pinocembrin-7-O-β-D-glucopyranoside],-0.1,
O=c1cc(-c2ccccc2)oc2cc(O)cc(O)c12 [Chrysin],1.5,
Nc1ncnc2c1ncn2[C@@H]1O[C@H](COP(=O)(O)OP(=O)(O)O)[C@@H](O)[C@H]1O [Adenosine 5'-diphosphate],0.9,
CCCCCc1cc(=O)c2ccccc2n1C [1-Methyl-2-pentyl-4(1H)-quinolinone],-0.6,
CC(C)=CCC[C@](C)(O[C@@H]1O[C@H](CO)[C@@H](O)[C@H](O)[C@H]1O)[C@H]1CC[C@]2(C)[C@@H]1[C@H](O)C[C@@H]1[C@@]3(C)CC[C@H](O)C(C)(C)[C@@H]3[C@@H](O[C@@H]3O[C@H](CO)[C@@H](O)[C@H](O)[C@H]3O)C[C@]12C [Ginsenoside Rg1],-0.4,
CC(CC(=O)C[C@@H](C)[C@H]1CC(=O)[C@@]2(C)C3=C(C(=O)C[C@]12C)[C@@]1(C)CC[C@H](O)C(C)(C)[C@@H]1C[C@@H]3O)C(=O)O (stereo partly shown) [Ganoderic acid B],-3.1,
C=C1CC[C@@H]2[C@](C)(CO)[C@H](O)CC[C@@]2(C)[C@@H]1CCC1=CCOC1=O [14-Deoxyandrographolide],,-0.4
CO[C@H]1[C@@H](O)[C@H](O[C@@H]2[C@@H](C)O[C@@H](O[C@H]3CC[C@@]4(C)[C@@H](CC[C@@]56O[C@@]57CC[C@@H](C(C)=O)[C@@]7(C)[C@H](OC(C)=O)[C@@H](OC(=O)c5ccccc5)[C@H]46)C3)C[C@H]2OC)O[C@H](C)[C@H]1O [Tenacissoside I],-4,
CN1Cc2c(ccc3c2OCO3)-c2ccc3cc4c(cc3c21)OCO4 [Dihydrosanguinarine],16.8,
COc1ccc(C(=O)O)cc1O [Isovanillic acid],0,
C=C[C@@]1(C)CC(=O)[C@]2(O)[C@@]3(C)[C@@H](O)CCC(C)(C)[C@@H]3[C@H](O)[C@H](OC(C)=O)[C@@]2(C)O1 [Forskolin],-1.4,
COc1cc(C=O)ccc1O[C@@H]1O[C@H](CO)[C@@H](O)[C@H](O)[C@H]1O [Glucovanillin],-0.5,
"O=C(O)c1cc(=O)[nH]c(=O)[nH]1 [2,6-Dioxo-1,2,3,6-tetrahydropyrimidine-4-carboxylic acid hyd] [2,6-Dioxo-1,2,3,6-tetrahydropyrimidine-4-carboxylic acid hydrate]",,-1
c1cc2c(cc1[C@H]1OC[C@H]3[C@@H]1CO[C@@H]3c1ccc3c(c1)OCO3)OCO2 [Sesamin],5.8,
O=C(O)Cc1cc(I)c(Oc2cc(I)c(O)c(I)c2)c(I)c1 [Tetrac],4.3,
CC(C)=CCc1c(-c2ccc(O)cc2O)oc2c([C@H]3C=C(C)C[C@@H](c4ccc(O)cc4O)[C@@H]3C(=O)c3ccc(O)cc3O)c(O)cc(O)c2c1=O [Kuwanon G],0.3,
Oc1nc(O)c2nc(O)[nH]c2n1 [Uric acid],-0.2,
C[C@]12C[C@H](O)[C@H]3[C@@H](CCC4=CC(=O)CC[C@@]43C)[C@@H]1CC[C@@H]2C(=O)CO [Corticosterone],0.7,

# 2 entries picked at random from the list so far, as already listed:
SMILES,OC43 Inhibition rate [%],"OC43 Inhibition rate (OC43 Inhibition rate, 24 h) [%]"
CC(C)=CCC/C(C)=C/CC/C(C)=C/CO [Farnesol],-0.3,
O=c1cc(-c2ccccc2)oc2cc(O)cc(O)c12 [Chrysin],1.5,

# (more compounds)

SMILES,OC43 Inhibition rate [%],"OC43 Inhibition rate (OC43 Inhibition rate, 24 h) [%]"
O=C(/C=C/c1ccc(O)c(O)c1)c1ccc(O)cc1O [Butein],6.5,
NC[C@H]1O[C@H](O[C@H]2[C@H](O)[C@@H](O[C@H]3O[C@H](CO)[C@@H](O)[C@H](N)[C@H]3O)[C@H](N)C[C@@H]2N)[C@H](O)[C@@H](O)[C@@H]1O [Kanamycin (sulfate)],3.2,
COc1ccc2c(=O)c(-c3ccc(O)cc3)coc2c1 [Isoformononetin],3.5,
CC[C@H]1CN2CC[C@H]1C[C@@H]2[C@@H](O)c1ccnc2ccc(OC)cc12 [Hydroquinidine],12.3,
N[C@@H](CC(=O)O)C(=O)O [Aspartic acid (calcium)],,-2.9
COc1cc(C=CC(=O)O)cc(OC)c1O (stereo in doubt) [Sinapinic acid],1.1,
Nc1ncnc2c1ncn2[C@H]1C[C@H](O)[C@@H](COP(=O)(O)O)O1 [2'-Deoxyadenosine-5'-monophosphate],-0.8,
Cc1cc(O)c(C(=O)CCC(C)C)c(=O)o1 [Pogostone],-0.7,
CC[C@@H]1[C@H]2CCCCN3[C@H]2[C@H](C[C@H]3[C@@H]2C[C@H](C)C(=O)O2)[C@@H]2[C@H]1OC(=O)[C@H]2C [Tuberostemonine],0.8,
OC[C@H]1O[C@H](OC[C@H]2OC(O)[C@H](O)[C@@H](O)[C@@H]2O)[C@H](O)[C@@H](O)[C@@H]1O (stereo partly shown) [Isomaltose],1.7,
"COc1cc(OC)cc(C(=O)O)c1 [3,5-Dimethoxybenzoic acid]",0.6,
COc1ccc2c(c1OC)C(=O)OC2 [Meconine],-0.3,
CC1(C)C2=CCCC(C)(C)[C@]23CC[C@H]1C3 [Isolongifolene],0.4,
COc1ccc2[nH]cc(CC(=O)O)c2c1 [5-Methoxyindole-3-acetic acid],-0.3,
CC(C)=CCC[C@](C)(O[C@@H]1O[C@H](CO)[C@@H](O)[C@H](O)[C@H]1O)[C@H]1CC[C@]2(C)[C@@H]1[C@H](O)C[C@@H]1[C@@]3(C)C[C@@H](O)[C@H](O[C@@H]4O[C@H](CO)[C@@H](O)[C@H](O)[C@H]4O[C@@H]4O[C@H](CO)[C@@H](O)[C@H](O)[C@H]4O)C(C)(C)[C@@H]3CC[C@]12C [Gypenoside XLVI],3.7,
O=C(O)c1ccoc1 [3-Furanoic acid],-1.3,
OC[C@H]1O[C@H](O[C@H]2[C@H](O)[C@@H](O)[C@H](O)O[C@@H]2CO)[C@H](O)[C@@H](O)[C@@H]1O [Maltose],,-0.9
C[C@@H]1O[C@H]2O[C@H]3[C@@H](OC[C@H](O)[C@@H]3O)OC(=O)[C@]34CCC(C)(C)C[C@H]3C3=CC[C@@H]5[C@@]6(C)C[C@H](O)[C@H](O[C@@H]7O[C@H](CO)[C@@H](O)[C@H](O)[C@H]7O[C@@H]7OC[C@H](OC(=O)C[C@](C)(O)CC(=O)O[C@@H]1[C@@H](O[C@@H]1OC[C@@H](O)[C@H](O)[C@H]1O)[C@H]2O)[C@H](O)[C@H]7O)[C@@](C)(CO)[C@@H]6CC[C@@]5(C)[C@]3(C)C[C@H]4O [Tubeimoside II],-2.8,
Cc1occc(=O)c1O [Maltol],-0.1,
OCc1cccc2ccccc12 [1-Naphthalenemethanol],2.9,
CC(C)=CCC[C@](C)(O[C@@H]1O[C@H](CO[C@@H]2OC[C@@H](O)[C@H](O)[C@H]2O)[C@@H](O)[C@H](O)[C@H]1O)[C@H]1CC[C@]2(C)[C@@H]1[C@H](O)C[C@@H]1[C@@]3(C)CC[C@H](O[C@@H]4O[C@H](CO)[C@@H](O)[C@H](O)[C@H]4O[C@@H]4O[C@H](CO)[C@@H](O)[C@H](O)[C@H]4O[C@@H]4OC[C@@H](O)[C@H](O)[C@H]4O)C(C)(C)[C@@H]3CC[C@]12C [Notoginsenoside Fc],0,
C#C[C@]1(O)CC[C@H]2[C@@H]3CCc4cc(O)ccc4[C@H]3CC[C@@]21C [Ethynyl Estradiol],0.2,
O=c1c2ccccc2nc2n1CC[C@@H]2O [Vasicinone],-0.7,
O=C(O)Cc1ccc(O)cc1 [4-Hydroxyphenylacetic acid],-0.7,
C[C@@H]1O[C@@H](Oc2cc(O)c3c(=O)c(O)c(-c4ccc(O)cc4)oc3c2O)[C@H](O)[C@H](O[C@H]2O[C@@H](CO)[C@H](O)[C@@H](O)[C@@H]2O)[C@H]1O [Rhodiosin],-0.4,
C[C@@H]1O[C@@H](c2c(O)c([C@@H]3O[C@H](CO)[C@@H](O)[C@H](O)[C@H]3O)c3oc(-c4ccc(O)cc4)cc(=O)c3c2O)[C@H](O)[C@H](O)[C@H]1O [Isoviolanthin],-0.2,

# One compound at a time (already shown).
# C[C@]12C[C@H](O)[C@H]3[C@@H](CCC4=CC(=O)CC[C@@]43C)[C@@H]1CC[C@@H]2C(=O)CO [Corticosterone] in the list: OC43 Inhibition rate [%]: 0.7
# OCc1cccc2ccccc12 [1-Naphthalenemethanol] in the list: OC43 Inhibition rate [%]: 2.9
